Experimental data published in article PMC10470007 (The Journal of Biological Chemistry, 2023).
No constants are given. Whether binding was seen depends on the method and setting. Some entries that bind do so weakly or less than the wild type.

Sequences of proteins named here, by UniProt entry; tags and fusion partners are left off.
UniProt P35372: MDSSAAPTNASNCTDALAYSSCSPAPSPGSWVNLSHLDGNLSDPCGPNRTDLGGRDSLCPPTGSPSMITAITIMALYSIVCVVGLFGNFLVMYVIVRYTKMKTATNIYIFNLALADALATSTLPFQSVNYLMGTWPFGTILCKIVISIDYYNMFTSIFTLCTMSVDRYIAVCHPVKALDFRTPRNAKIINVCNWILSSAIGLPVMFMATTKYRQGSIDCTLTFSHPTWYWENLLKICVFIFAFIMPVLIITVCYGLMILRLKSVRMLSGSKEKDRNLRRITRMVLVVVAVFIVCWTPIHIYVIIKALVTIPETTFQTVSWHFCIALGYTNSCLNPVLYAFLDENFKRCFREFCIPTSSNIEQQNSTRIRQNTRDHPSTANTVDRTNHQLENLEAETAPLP

Key:
[1] = molecular target: μ-OR-TANGO (UniProt P35372); assay: Tango (protease-dependent reporte)
[2] = molecular target: AT1R-TANGO (UniProt P30556); assay: Tango (protease-dependent reporte)

binding [1]: binds
binding [2]: binds
Substance: β-arrestin2-TEV219 (from UniProt P32121 1-409)
